In the supplement of paper PMC7646827:
Where a name gives a salt, the structure may show the parent alone. Repeats are few or missing, and single values can be far off.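 All cells are established human bladder cancer lines, one derived from a patient-derived xenograft. A luminescent ATP assay measured viability as percent inhibition relative to vehicle across seven dilutions. The paper rates scores above 59 very active, 30–59 active, 21–29 semi-active, 9–20 low active, below 9 inactive.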

Key:
Experiment in all cases: drug sensitivity score DSS3 (score 0-100); higher = more sensitive; extreme values may be limits of the assay
Details in all cases: culture: 3D, ultra-low attachment; treatment time: 5 days
5637 = test system: 5637
BC8149 = test system: BC8149
J82 = test system: J82
SCaBER = test system: SCaBER
SW780 = test system: SW780
T-24 = test system: T-24
TCCSUP = test system: TCCSUP
UM-UC-12 = test system: UM-UC-12
UM-UC-14 = test system: UM-UC-14
UM-UC-15 = test system: UM-UC-15
UM-UC-17 = test system: UM-UC-17
UM-UC-18 = test system: UM-UC-18
UM-UC-1 = test system: UM-UC-1
UM-UC-3 = test system: UM-UC-3
UM-UC-5 = test system: UM-UC-5
UM-UC-6 = test system: UM-UC-6
UM-UC-9 = test system: UM-UC-9

Row | Compound | drug sensitivity score DSS3 5637 | drug sensitivity score DSS3 (BC8149) | drug sensitivity score DSS3 (J82) | drug sensitivity score DSS3 (SCaBER) | drug sensitivity score DSS3 (SW780) | drug sensitivity score DSS3 (T-24) | drug sensitivity score DSS3 (TCCSUP) | drug sensitivity score DSS3 (UM-UC-12) | drug sensitivity score DSS3 (UM-UC-14) | drug sensitivity score DSS3 (UM-UC-15) | drug sensitivity score DSS3 (UM-UC-17) | drug sensitivity score DSS3 (UM-UC-18) | drug sensitivity score DSS3 (UM-UC-1) | drug sensitivity score DSS3 (UM-UC-3) | drug sensitivity score DSS3 (UM-UC-5) | drug sensitivity score DSS3 (UM-UC-6) | drug sensitivity score DSS3 (UM-UC-9)
1 | CCc1c2c(nc3ccc(O)cc13)-c1cc3c(c(=O)n1C2)COC(=O)[C@]3(O)CC [SN-38] (max dose 10000 nM) | 76.5 | 81.7 | 57.7 | 39.4 | 10.1 | 29.8 | 80.6 | 73.3 | 50.6 | 9.67 | 44.1 | 81.2 | 74.5 | 63.6 | 28.2 | 56.3 | 0.943
2 | COc1cc2c(cc1OC)CN(C(=O)/C=C/c1c(-c3ccccc3)n(C)c3ncccc13)CC2 [SIS3 HCl] (max dose 10000 nM) | 0 | 0 | 0 | 0 | 0 | 0 | 0 | 0 | 0 | 0 | 0 | 0 | 0 | 0 | 0 | 0 | 0
3 | CC1(N)CCN(c2cnc(-c3cccc(Cl)c3Cl)c(N)n2)CC1 [SHP099 dihydrochloride] (max dose 10000 nM) | 0 | 0 | 0 | 0 | 0 | 0.379 | 0 | 0.338 | 0 | 0.0124 | 0 | 0.374 | 0 | 0 | 0 | 0 | 0
4 | Cc1ccc(NC(=O)c2ccc(CN3CC[C@H](N(C)C)C3)c(C(F)(F)F)c2)cc1Nc1nccc(-c2cncnc2)n1 [Bafetinib (INNO-406)] (max dose 10000 nM) | 20.5 | 6.03 | 0 | 2.29 | 0 | 0 | 10.6 | 0 | 1.46 | 0 | 4.59 | 1.65 | 7.65 | 1.48 | 4.91 | 2.62 | 0.989
5 | COc1ccc(-c2oc3c(CC=C(C)C)c(O[C@@H]4O[C@H](CO)[C@@H](O)[C@H](O)[C@H]4O)cc(O)c3c(=O)c2O[C@@H]2O[C@@H](C)[C@H](O)[C@@H](O)[C@H]2O)cc1 [Icariin] (max dose 10000 nM) | 0 | 0 | 0 | 0 | 0 | 0 | 0 | 0 | 0 | 2.73e-06 | 0 | 0 | 0 | 0 | 0 | 0 | 0
6 | FC(F)(F)c1ccc(/C=C/c2nc(COc3ccc(CCCCn4ccnn4)cc3)co2)cc1 [Mubritinib (TAK 165)] (max dose 10000 nM) | 0 | 0 | 0 | 0 | 11.6 | 0 | 5.83 | 0 | 25.6 | 0 | 12.5 | 0 | 24.9 | 2.23e-06 | 3.7 | 12.6 | 11.4
7 | COc1nc(C)cnc1NS(=O)(=O)c1cccnc1-c1ccc(-c2nnco2)cc1 [AZD4054, Zibotentan (ZD4054)] (max dose 10000 nM) | 0 | 0 | 0 | 0 | 0 | 0 | 0 | 0 | 0 | 0 | 0 | 0 | 0 | 0 | 0 | 0 | 0
8 | CCNC(=O)c1noc(-c2cc(C(C)C)c(O)cc2O)c1-c1ccc(CN2CCOCC2)cc1 [AUY922 (NVP-AUY922)] (max dose 10000 nM) | 65.3 | 60.3 | 28.7 | 64.3 | 1.19 | 52.8 | 37.5 | 50.2 | 24.5 | 48 | 24.4 | 60.6 | 38.6 | 66.9 | 30.1 | 15.2 | 34.2
9 | O=C(O)COc1ccc(Br)cc1C=C1SC(=S)N(Cc2cccnc2)C1=O [Skp2 inhibitor C1 (SKPin C1)] (max dose 10000 nM) | 0 | 0 | 0 | 0 | 0 | 0 | 0 | 0 | 0 | 0 | 0 | 0 | 0 | 0 | 0 | 1.26e-05 | 0
10 | Cn1nnc2c(C(N)=O)ncn2c1=O [Temozolomide] (max dose 10000 nM) | 1.42 | 1.19 | 0 | 1.61 | 0.09 | 0.374 | 0.102 | 0 | 1.16 | 0 | 0.121 | 0.0547 | 0.183 | 1.58 | 0.132 | 0.694 | 1.89
11 | Cc1ccc(OCC(O)C(C)NC(C)C)c2c1CCC2 (centres undefined) (max dose 10000 nM) | 8.86 | 4.86 | 0 | 8.47 | 0 | 0.599 | 17.3 | 0 | 1.88 | 0 | 2.1 | 7.31 | 7.15 | 2.9 | 0.646 | 3.47 | 0
12 | Oc1ccc(Nc2nc(-c3ccc(Cl)cc3)cs2)cc1 [SKI II] (max dose 10000 nM) | 0.274 | 0 | 0 | 0 | 0 | 0 | 0.204 | 0 | 0 | 0 | 0 | 0 | 0 | 0 | 0 | 0 | 0
